Laboratory results reported in patent US20050176940.
No signal at the amounts used counts as a negative. The exact form of at least one protein or probe is not confirmed. A weaker result is weaker than the reference pair of the same experiment.

System: alpha-thrombin (Bos taurus)
Experiment: inhibition of the protein
Conditions: purified native protein, protein details: Armour Pharmaceutical Co., 5000 U, folded or branched DNA

GCTGTGGTTGGTGAGGTTGGCAGCAGCCATTCACCATGGCCCCTTCCTACGTATGTTCTGCGGGTGGCT [TS3-1 (unligated)]
functional effect of the aptamer (5'-phosphate, clotting inhibition similar to negative controls, dose not given here): not active

CTGGGTTGGTGAGGTTGGTCAGCACGGTTGGTGAGGTTGGTGTG [cDH6-1]
functional effect of the aptamer (circular (5'-3' ligated), clotting time, 100 nM DNA, selection buffer 37 C, baseline 41 s, similar to negative controls, variant of DH6-1 (unligated), counted as no effect): 49 s

ACTGGTTGGTGAGGTTGGGTGCGAAGC [TC1 (linear)]
functional effect of the aptamer (5'-phosphate, dose not given here): less active

CTGGGTTGGTGAGGTTGGTCAGCACGGTTGGTGAGGTTGGTGTG [DH6-1 (unligated)]
functional effect of the aptamer (5'-phosphate, clotting time, 100 nM DNA, selection buffer 37 C, baseline 41 s, described as no inhibition, counted as no effect): 54 s

GCTGTGGTTGGTGAGGTTGGCAGCAGCCAAGGTAACCAGTACAAGGTGCTAAACGTAATGGCTTCGGCT [TS1-1 (unligated)]
functional effect of the aptamer (5'-phosphate, clotting time, 100 nM DNA, selection buffer 37 C, baseline 41 s, serum (50 nM) 44 s, similar to negative controls, counted as no effect): 53 s
